Experimental data: PubChem BioAssay (NCATS)
The shares of active, inactive and inconclusive entries below differ from those in the screen. For part of these data: A potency beside an inconclusive call is a rough fit, not a confirmed value. The source made the active and inactive calls. Unless noted, the call rests on the fitted dose curve; in most records, active means well fitted curve in the direction sought with a large enough effect; inconclusive means small, poorly fitted or top-dose-only effect, or another doubt; inactive means no such curve, though single readings can be large; an effect the other way counts as inactive or inconclusive.

By UniProt entry, the sequences of proteins in these tests, tags left out.
UniProt P08684, whole entry, looked up: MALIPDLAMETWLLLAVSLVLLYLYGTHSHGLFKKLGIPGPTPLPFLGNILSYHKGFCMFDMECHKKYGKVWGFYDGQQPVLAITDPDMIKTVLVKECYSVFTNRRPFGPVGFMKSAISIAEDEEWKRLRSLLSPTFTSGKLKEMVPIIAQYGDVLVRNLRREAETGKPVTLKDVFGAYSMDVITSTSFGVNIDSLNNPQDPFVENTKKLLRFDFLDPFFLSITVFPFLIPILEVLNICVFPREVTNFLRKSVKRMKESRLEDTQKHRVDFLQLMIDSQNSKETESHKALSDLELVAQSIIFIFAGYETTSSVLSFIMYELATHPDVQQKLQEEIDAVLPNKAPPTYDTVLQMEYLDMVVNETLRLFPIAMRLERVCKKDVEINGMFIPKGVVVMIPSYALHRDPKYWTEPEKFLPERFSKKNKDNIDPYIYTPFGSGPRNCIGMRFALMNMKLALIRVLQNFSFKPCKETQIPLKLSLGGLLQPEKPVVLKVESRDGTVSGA
UniProt P10635, whole entry, looked up: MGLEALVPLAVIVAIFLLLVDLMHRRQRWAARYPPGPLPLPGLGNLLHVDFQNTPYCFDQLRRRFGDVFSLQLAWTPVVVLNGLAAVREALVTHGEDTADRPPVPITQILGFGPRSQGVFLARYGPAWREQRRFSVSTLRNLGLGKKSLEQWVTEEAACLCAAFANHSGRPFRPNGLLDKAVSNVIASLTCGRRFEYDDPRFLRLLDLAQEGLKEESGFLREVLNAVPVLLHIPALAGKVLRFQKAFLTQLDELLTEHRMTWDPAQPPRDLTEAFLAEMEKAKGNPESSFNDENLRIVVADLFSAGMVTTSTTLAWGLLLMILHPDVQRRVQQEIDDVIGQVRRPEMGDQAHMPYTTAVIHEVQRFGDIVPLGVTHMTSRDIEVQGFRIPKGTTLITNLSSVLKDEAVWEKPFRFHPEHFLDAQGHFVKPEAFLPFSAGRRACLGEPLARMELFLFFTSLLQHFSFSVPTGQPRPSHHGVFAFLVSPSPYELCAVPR
UniProt P11712, whole entry, looked up: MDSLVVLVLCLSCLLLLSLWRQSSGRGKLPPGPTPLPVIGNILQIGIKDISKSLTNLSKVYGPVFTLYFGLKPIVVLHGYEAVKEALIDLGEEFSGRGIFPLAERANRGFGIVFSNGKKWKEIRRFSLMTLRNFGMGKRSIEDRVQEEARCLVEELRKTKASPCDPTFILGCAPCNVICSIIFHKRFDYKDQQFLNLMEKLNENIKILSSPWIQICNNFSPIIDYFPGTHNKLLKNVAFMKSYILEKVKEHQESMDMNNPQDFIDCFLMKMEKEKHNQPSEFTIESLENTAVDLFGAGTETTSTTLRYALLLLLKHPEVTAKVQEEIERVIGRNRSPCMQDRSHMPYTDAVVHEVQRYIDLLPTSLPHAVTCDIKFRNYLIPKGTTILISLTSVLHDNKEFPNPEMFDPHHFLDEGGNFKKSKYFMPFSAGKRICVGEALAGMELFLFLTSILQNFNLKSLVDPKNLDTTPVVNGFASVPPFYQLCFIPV
UniProt P33261, whole entry, looked up: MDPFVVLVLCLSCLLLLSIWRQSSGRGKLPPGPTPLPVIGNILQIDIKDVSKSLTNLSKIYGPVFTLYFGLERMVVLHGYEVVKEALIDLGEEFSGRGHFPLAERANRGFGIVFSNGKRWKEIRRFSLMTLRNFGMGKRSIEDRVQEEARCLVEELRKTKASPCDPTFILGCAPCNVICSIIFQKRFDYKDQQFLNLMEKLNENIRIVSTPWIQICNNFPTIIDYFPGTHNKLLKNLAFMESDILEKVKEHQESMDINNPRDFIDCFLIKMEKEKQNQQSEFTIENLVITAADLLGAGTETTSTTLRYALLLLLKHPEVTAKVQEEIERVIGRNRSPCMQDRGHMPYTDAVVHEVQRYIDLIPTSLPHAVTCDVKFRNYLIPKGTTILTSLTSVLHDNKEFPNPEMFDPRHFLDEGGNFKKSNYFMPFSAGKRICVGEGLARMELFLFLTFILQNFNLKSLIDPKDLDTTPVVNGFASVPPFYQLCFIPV
UniProt P05177, whole entry, looked up: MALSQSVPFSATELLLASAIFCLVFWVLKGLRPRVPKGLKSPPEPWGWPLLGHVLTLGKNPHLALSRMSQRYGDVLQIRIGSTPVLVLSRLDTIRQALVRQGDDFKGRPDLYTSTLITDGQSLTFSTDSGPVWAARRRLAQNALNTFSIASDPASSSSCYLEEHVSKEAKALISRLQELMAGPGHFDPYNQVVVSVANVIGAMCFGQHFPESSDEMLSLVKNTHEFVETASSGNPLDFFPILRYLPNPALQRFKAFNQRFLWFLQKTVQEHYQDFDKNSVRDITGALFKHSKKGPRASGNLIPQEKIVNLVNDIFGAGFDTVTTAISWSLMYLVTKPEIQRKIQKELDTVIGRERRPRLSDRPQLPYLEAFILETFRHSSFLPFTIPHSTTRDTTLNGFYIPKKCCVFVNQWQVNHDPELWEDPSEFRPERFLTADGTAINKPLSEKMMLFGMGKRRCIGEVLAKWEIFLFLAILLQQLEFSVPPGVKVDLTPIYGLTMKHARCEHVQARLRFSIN

What was measured:
[1] = Quantitative High-Throughput drug screen in 47 multiple myeloma cell lines against the NCATS MIPE library collection: VP6_DJ cell viability assay (AID 1919867); further: nearly all actives have a fitted effect of over 40% in size; further: potency means the concentration at half of the fitted maximal effect
Summary of the method: (§1)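 Readout: median RLU from CellTiter-Glo after 5 min at room temperature. Preceding step was 48 h drug treatment of 500 cells/well at 37 °C, 5% CO2, with DMSO-only and media-only control wells.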

[2] = Quantitative High-Throughput drug screen in 47 multiple myeloma cell lines against the NCATS MIPE library collection: UTMC2_PLB cell viability assay (AID 1919868); details: CellTiter-Glo ATP luminescence, 48 h; viability (% of DMSO control): at 45.8 µM (top of the series); further: nearly all actives have a fitted effect of over 55% in size; further: potency means the concentration at half of the fitted maximal effect;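 on viability (% of DMSO control): 100% = DMSO-only wells and 0% = media-only wells without cells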
Summary of the method: as §1

[3] = Quantitative High-Throughput drug screen in 47 multiple myeloma cell lines against the NCATS MIPE library collection: PE2_PLB cell viability assay (AID 1919869); details: PE2_PLB myeloma cells viability, ATP luminescence, 48 h; viability (% of control): at 45.8 µM (top of the series); further: nearly all actives have a fitted effect of over 35% in size; further: potency means the concentration at half of the fitted maximal effect;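 on viability (% of control): 100% = DMSO-only wells and 0% = cell-free media-only wells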
Summary of the method: as §1

[4] = Quantitative High-Throughput drug screen in 47 multiple myeloma cell lines against the NCATS MIPE library collection: PCM6_Riken cell viability assay (AID 1919870); further: nearly all actives have a fitted effect of over 30% in size; further: potency means the concentration at half of the fitted maximal effect;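 on viability (% of control): 100% = DMSO-only wells and 0% = media-only wells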
Summary of the method: as §1

[5] = Quantitative High-Throughput drug screen in 47 multiple myeloma cell lines against the NCATS MIPE library collection: KMS11_JCRBsus cell viability assay (AID 1919873); further: nearly all actives have a fitted effect of over 50% in size; further: potency means the concentration at half of the fitted maximal effect;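 on viability (% of control): 100% = DMSO-only wells and 0% = media-only wells without cells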
Summary of the method: as §1

[6] = Quantitative High-Throughput drug screen in 47 multiple myeloma cell lines against the NCATS MIPE library collection: KMS28BM_JCRB cell viability assay (AID 1919874); details: CellTiter-Glo ATP, 48 h; viability, % of control: at 45.8 µM (top of the series); further: nearly all actives have a fitted effect of over 35% in size; further: potency means the concentration at half of the fitted maximal effect
Summary of the method: as §1

[7] = qHTS for identification of novel therapeutic agents for treatment of microphthalmiaassociated transcription factor (MiT) renal cell carcinoma (RCC) (AID 1963991; calls by dose curve; further: potency means the concentration at half of the fitted maximal effect); details: TFE3-RCC UOK109 viability, CellTiter-Glo, 48 h; active = Z-AUC below -0.8 in all three lines
Summary of the method: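 Three TFE3-fusion RCC cell lines (UOK109, UOK124, UOK145), 500 cells/well, were exposed to the 1912-compound MIPE 4.0 library for 48 hours at 37 C. Viability was read by CellTiter-Glo luminescence, normalised to DMSO (100%) and empty wells (0%), with 11-concentration curve fits.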

[8] = Quantitative High-Throughput drug screen in 47 multiple myeloma cell lines against the NCATS MIPE library collection: RPMI8226_ATCC cell viability assay (AID 1919871); details: RPMI8226 myeloma viability, CellTiter-Glo ATP luminescence, 48 h; viability (% of control): at 45.8 µM (top of the series); further: nearly all actives have a fitted effect of over 30% in size; further: potency means the concentration at half of the fitted maximal effect
Summary of the method: as §1

[9] = Quantitative High-Throughput drug screen in 47 multiple myeloma cell lines against the NCATS MIPE library collection: OPM2_DSMZ cell viability assay (AID 1919872); further: nearly all actives have a fitted effect of over 30% in size; further: potency means the concentration at half of the fitted maximal effect
Summary of the method: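 Inhibition of cell viability is measured here. Each line was plated at 500 cells per well, treated with MIPE 4.0 drugs, kept 48 hours at 37C, then assayed for ATP content by CellTiter-Glo luminescence.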

[10] = target: Cytochrome P450 3A4 (Homo sapiens) (UniProt P08684); test: qHTS for inhibitors of CYP3A4 against the NCATS DSHEA and TCM libraries (AID 1919971); further: potency means the concentration at half of the fitted maximal effect
Summary of the method: (§2)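 Substances were tested against enzyme with a pro-luciferin substrate; minus-enzyme wells served as background. After NADPH-initiated oxidation (30-45 min, RT), light was generated with P450-Glo reagent.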

[11] = target: Cytochrome P450 2D6 (Homo sapiens) (UniProt P10635); test: qHTS for inhibitors of CYP2D6 against the NCATS DSHEA and TCM libraries (AID 1919972); further: on the % scale 0 is the no-effect control and ±100 the full control effect
Summary of the method: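 qHTS, concentration–response format with most substances from 19.5 nM. CYP2D6 + pro-luciferin substrate, 15 min with compound, then 1x NADPH regen, 30–45 min RT dark. Glo detection 30 min, luminescence. Quinidine control.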

[12] = target: Cytochrome P450 2C9 (Homo sapiens) (UniProt P11712); test: qHTS for inhibitors of CYP2C9 against the NCATS DSHEA and TCM libraries (AID 1919973); further: potency means the concentration at half of the fitted maximal effect
Summary of the method: as §2

[13] = target: Cytochrome P450 2C19 (Homo sapiens) (UniProt P33261); test: qHTS for inhibitors of CYP2C19 against the NCATS DSHEA and TCM libraries (AID 1919974); details: CYP2C19 enzyme inhibition, luminescence qHTS;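 further: luminescence from luciferin released by CYP2C19 oxidation of a pro-luciferin substrate; potency means the concentration at half of the fitted maximal effect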
Summary of the method: as §2

[14] = target: Cytochrome P450 1A2 (Homo sapiens) (UniProt P05177); test: qHTS for inhibitors of CYPIA2 against the NCATS DSHEA and TCM libraries (AID 1919976); details: recombinant CYP1A2 enzyme activity, luminescence; further: potency means the concentration at half of the fitted maximal effect
Summary of the method: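 Luminescence read-out: pro-luciferin converted to D-luciferin by CYP1A2, detected with P450-Glo reagent after 30 min RT. Enzyme plus substrate got compounds for 15 min RT; NADPH regeneration solution (final 1x) started a 30-45 min reaction, light-protected.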

3D7 = test: qHTS profiling for inhibitors of Plasmodium falciparum proliferation (AID 504749); further: potency means the concentration at half of the fitted maximal effect; nearly all actives have a fitted effect of over 60% in size; details: P. falciparum in erythrocytes, SYBR Green DNA, 72 h; series mostly up to 28.7 µM
Summary of the method: (§3)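 Fluorescence of SYBR Green-bound parasite DNA, read at 485/535 nm, served as the growth measure. Infected erythrocytes were cultured with compound 72 h; artemisinin (0.29 uM) and DMSO wells defined the normalization range.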

7G8 = test: as above; details: P. falciparum in erythrocytes, SYBR Green DNA, 72 h; series mostly up to 28.7 µM
Summary of the method: as §3

CC(=O)OCCN1C(=O)c2c(C)nc3ccc(S(=O)(=O)N4CCOCC4)cc3c2C1=O
inconclusive: Potency [1] 0.0264 µM [rising, full curve, poor fit] | Potency [2] 0.264 µM [rising, full curve, poor fit] | Potency [7] 37.2 µM [falling, single point]
inactive: Potency [3] | Potency [4] | Potency [5] | Potency [6]

O=c1[nH]cnc2[nH]ncc12
active: Potency [3] 18.7 µM
inactive: Potency [8] | Potency [5]
inconclusive: Potency [1] 3.72 µM [cytotoxic, partial curve, poor fit] | Potency [2] 0.0833 µM [cytotoxic, full curve, poor fit] | Potency [9] 0.0017 µM [rising, full curve, poor fit] | Potency [6] 0.0017 µM [rising, full curve]

COc1ccc(C(C)=O)c(O)c1
inconclusive: Potency [1] 18.7 µM [cytotoxic, partial curve, poor fit] | Potency [2] 0.0332 µM [cytotoxic, full curve, poor fit] | Potency [6] 3.72 µM [rising, partial curve] | Potency [10] 25.1 µM [inhibitor, partial curve] | Potency [12] 25.1 µM [inhibitor, partial curve] | Potency [13] 28.2 µM [inhibitor, single point] | Potency [7] 5.9 µM [falling, full curve]
inactive: Potency [3] | Potency [4] | Potency [5] | Potency [11]
active: Potency [14] 15.8 µM

Cc1ccc(-c2cc(C(F)(F)F)nn2-c2ccc(S(N)(=O)=O)cc2)cc1
inactive: Potency [3]
inconclusive: Potency [1] 0.0021 µM [rising, full curve, poor fit] | Potency [2] 37.2 µM [cytotoxic, single point] | Potency [4] 20.9 µM [cytotoxic, partial curve, poor fit] | Potency [5] 14.8 µM [cytotoxic, partial curve] | Potency [6] 37.2 µM [cytotoxic, single point] | Potency (3D7) 10 µM [inhibitor, single point] | Potency (7G8) 7.94 µM [inhibitor, single point]

CCCCn1c(=O)n(Cc2ccccc2F)c(=O)c2[nH]c(Cc3ccc(NC(C)=O)cc3)nc21
inactive: Potency [1] | Potency [3]
inconclusive: Potency [2] 0.0132 µM [rising, full curve, poor fit] | Potency [4] 0.0132 µM [rising, full curve, poor fit] | Potency [5] 6.62 µM [cytotoxic, full curve, poor fit] | Potency [7] 26.4 µM [falling, partial curve, poor fit]

CCCCCOC(=O)Nc1nc(=O)n([C@@H]2O[C@H](C)[C@@H](O)C2O)cc1F (some centres undefined)
active: Potency [1] 2.64 µM
inconclusive: Potency [5] 7.43 µM [cytotoxic, partial curve, poor fit] | Potency [6] 9.35 µM [cytotoxic, single point]
inactive: Potency [2] | Potency [3] | Potency [8]

CC(C)[C@H](O)C(=O)N[C@@H](C)C(=O)N[C@@H]1C(=O)N(C)CCc2ccccc21
inactive: Potency [3] | Potency [8] | Potency [9]
inconclusive: Potency [1] 41.8 µM [cytotoxic, single point] | Potency [2] 9.35 µM [cytotoxic, full curve, poor fit] | Potency [7] 14.8 µM

Cc1csc(-c2nnc(Nc3ccc(Oc4ncccc4-c4ccnc(N)n4)cc3)c3ccccc23)c1
inconclusive: Potency [1] 14.8 µM [cytotoxic, partial curve] | Potency [2] 0.0033 µM [cytotoxic, full curve, poor fit] | Potency [3] 20.9 µM [cytotoxic, partial curve] | Potency [8] 20.9 µM [cytotoxic, partial curve] | Potency [9] 26.4 µM [cytotoxic, partial curve] | Potency [6] 37.2 µM [cytotoxic, partial curve, poor fit] | Potency [7] 16.6 µM [falling, partial curve]

C[C@@H](NCc1cc2ccccc2[nH]1)c1cccc2ccccc12
inactive: Potency [1] | Potency [4] | Potency [6]
inconclusive: Potency [2] 0.0012 µM [rising, full curve, poor fit] | Potency [3] 23.5 µM [cytotoxic, partial curve, poor fit] | Potency [7] 0.0118 µM

CN1C(C(=O)Nc2ccccn2)=C(O)c2sccc2S1(=O)=O
inactive: Potency [3] | Potency [8] | Potency [9]
inconclusive: Potency [1] 0.0047 µM [rising, full curve, poor fit] | Potency [2] 2.35 µM [cytotoxic, full curve, poor fit] | Potency [5] 5.26 µM [cytotoxic, partial curve, poor fit] | Potency [6] 4.18 µM [cytotoxic, partial curve, poor fit]

CC(C)c1nc(CN(C)C(=O)N[C@H](C(=O)N[C@@H](Cc2ccccc2)C[C@H](O)[C@H](Cc2ccccc2)NC(=O)OCc2cncs2)C(C)C)cs1
inconclusive: Potency [1] 0.0187 µM [rising, full curve, poor fit] | Potency [2] 0.001 µM [cytotoxic] | Potency [3] 26.4 µM [cytotoxic, single point] | Potency [8] 16.6 µM [cytotoxic, partial curve] | Potency [5] 7.43 µM [cytotoxic, full curve] | Potency [6] 5.9 µM [cytotoxic, partial curve, poor fit]

COc1cccc(N(C)C(=S)Oc2ccc3c(c2)CCCC3)n1
inconclusive: Potency [1] 37.2 µM [cytotoxic, single point] | Potency [4] 29.6 µM [cytotoxic, single point] | Potency [6] 23.5 µM [cytotoxic, partial curve] | Potency (3D7) 17.8 µM [inhibitor, single point] | Potency (7G8) 11.2 µM [inhibitor, single point]
inactive: Potency [2] | Potency [3]

c1ccc(CNc2nc(N3CCOc4ccccc43)nc3c2CCCC3)cc1
inactive: Potency [6]
inconclusive: Potency [1] 11.8 µM [cytotoxic, single point] | Potency [2] 0.059 µM [rising, full curve, poor fit] | Potency [3] 20.9 µM [cytotoxic, single point] | viability (% of control) [8] 101% [cytotoxic] | Potency [9] 11.8 µM [rising, single point] | Potency [5] 93.5 µM [cytotoxic, partial curve, poor fit]

CCC(=O)O[C@]1(C(=O)CCl)[C@@H](C)C[C@H]2[C@@H]3CCC4=CC(=O)C=C[C@]4(C)[C@@]3(F)[C@@H](O)C[C@@]21C
inactive: Potency [3] | Potency [4]
inconclusive: Potency [2] 0.0093 µM [cytotoxic, full curve, poor fit] | Potency [5] 0.0019 µM [cytotoxic, full curve] | Potency [7] 37.2 µM [falling, single point]
active: Potency [1] 0.0332 µM

C=C1c2cccc(O)c2C(O)=C2C(=O)[C@@]3(O)C(O)=C(C(N)=O)C(=O)[C@@H](N(C)C)[C@@H]3[C@@H](O)[C@H]12
inconclusive: Potency [1] 20.9 µM [cytotoxic, partial curve, poor fit] | Potency [2] 4.69 µM [cytotoxic, partial curve, poor fit] | Potency [3] 10.5 µM [cytotoxic, partial curve, poor fit] | Potency [8] 20.9 µM [cytotoxic, partial curve, poor fit] | Potency [9] 33.2 µM [cytotoxic, single point] | Potency [6] 11.8 µM [cytotoxic, full curve, poor fit] | Potency (7G8) 2.24 µM [inhibitor, partial curve]

COc1cccc2nc(-c3cccs3)nc(NN3C(=O)C=C(C)C3=O)c12
active: Potency [1] 0.0372 µM | Potency [3] 0.418 µM | Potency [8] 2.09 µM | Potency [5] 0.0083 µM
inconclusive: Potency [2] 3.32 µM [cytotoxic, full curve, poor fit] | Potency [7] 18.7 µM [falling, partial curve]

CC1CNc2c(cccc2S(=O)(=O)N[C@@H](CCCN=C(N)N)C(=O)N2CC[C@@H](C)C[C@@H]2C(=O)O)C1 (some centres undefined)
inconclusive: Potency [7] 13.2 µM [falling, partial curve]
inactive: Potency [1] | Potency [2] | Potency [3] | Potency [4] | Potency [5]

O=C1NC(O)CCN1[C@@H]1O[C@H](CO)[C@H](O)[C@H]1O (some centres undefined)
inconclusive: Potency [1] 26.4 µM [cytotoxic, single point] | Potency [2] 0.0019 µM [cytotoxic, full curve, poor fit] | Potency [4] 0.0019 µM [rising, full curve, poor fit] | Potency [8] 0.0012 µM [cytotoxic, full curve, poor fit]
inactive: Potency [9] | Potency [5]

O=C(Nc1nnc(-c2ccco2)o1)c1cc(-c2ccccc2)nc2ccccc12
active: Potency [1] 14.8 µM | Potency [2] 14.8 µM | Potency [3] 18.7 µM
inconclusive: Potency [5] 16.6 µM [cytotoxic, partial curve] | Potency [6] 26.4 µM [cytotoxic, single point] | Potency [7] 37.2 µM [falling, single point]
